According to patent US20250326814A1, “MODIFIED OXYNTOMODULIN AND METHODS OF USE THEREOF” (OPKO BIOLOGICS LTD., priority 2024, published 2025):
Some of these results come from one statement about several compounds together. Non-standard residues stand in square brackets, D forms with d. Residues, ends and D or L forms follow the SMILES beside them. *: point of attachment. X1 = O=C(O)CCCCCCCCCCCCCCCCCCC(=O)N[C@@H](CCC(=O)NCCOCCOCC(=O)NCCOCCOCC(=O)N[C@@H](CCCCNC(=O)C*)C(=O)NCC(=O)O)C(=O)O; Aib = CC(C)(N)C(=O)O

Columns and labels:
Assay type in all cases: in vivo
[1] = system: DIO mice; test: Fasting blood glucose and plasma insulin in DIO mice; conditions: 15 nmol/kg q.d.
Description: (§1) For in vivo blood samples, tail-vein, tongue or cheek blood was collected in a Microvette tube of appropriate dimensions with anticoagulant and mixed by inversion 5 times. Blood was placed at 4° C. until centrifuged at 3000 g for 10 minutes. The plasma supernatants were transferred to new tubes and immediately frozen on dry ice. The samples were stored at −70° C.
Insulin: Blood samples were collected in heparinized tubes and plasma was separated and stored at −70° C. until analysis. Insulin was measured using the commercial MSD platform (Meso Scale Diagnostics).
(§2) Sixty C57BL/6JRj male mice were fed a high fat diet (60% HFD, D12492—Ssniff) for 20 weeks before treatment start. […] Body weight and food intake (24 h) were measured daily. In week 3, an OGTT study was performed. Baseline and preterminal fasting blood glucose and plasma insulin were assessed. Preterminal plasma TC and TG were assessed. Terminal endpoints included liver and heart weight, liver TC, TG, […] and lipid content (HE staining).

[2] = system: DIO mice; test: Liver cholesterol, triglyceride and glycogen in DIO mice
Description: After termination, the liver was collected and weighed. Specific liver samples and biopsies were dissected and processed as specified in table “Termination samples” in the protocol and further described below.
The Liver TG TC piece (25±5 mg) was dissected from the right medial lobe, with no edges, on the opposite side of the sponsor piece. The samples were weighed individually, collected in tubes and frozen in liquid nitrogen. The samples were stored at −70° C.
Liver Triglycerides (TG) and Total cholesterol (TC): The liver content of triglyceride and total cholesterol was extracted from the liver samples into 5% NP-40, in a homogenization process followed by a heating step, where the samples were heated twice to 90° C. The samples were then centrifuged, and the supernatant was collected. The TG and TC levels were then determined by measurement on the cobas c 501 autoanalyzer with the relevant commercial kits from Roche Diagnostics.
as §2

[3] = system: DIO mice; test: Body composition (fat and lean tissue mass) in DIO mice; conditions: 15 nmol/kg QD SC
Description: The body composition of mice was assessed by an EchoMRI 3 in 1 Body composition analyzer (EchoMRI, US). Non-anaesthetized animals were placed in a plastic tube inside the MRI scanner for approximately 80 seconds. The body composition was reported as fat mass and fat free mass (lean mass).
as §2

[4] = system: DIO mice; test: Plasma cholesterol and triglyceride in DIO mice
Description: as §1, with “termination” for “in vivo”, “during anesthesia with isoflurane, the abdominal cavity was opened, and cardiac” for “tail-vein, tongue or cheek”, “drawn with” for “collected in”, “syringe into a Microvette/Vacuette” for “Microvette tube”
Alanine transaminase (ALT), Aspartate transaminase (AST), Triglycerides (TG) and Total Cholesterol (TC): Blood samples were collected in heparinized tubes and plasma was separated and stored at −70° C. until analysis. Samples were measured using commercial kits (Roche Diagnostics), on the cobas c 501 autoanalyzer.
as §2

[5] = system: DIO mice; test: Body weight and food intake in DIO mice, 4 weeks daily treatment; conditions: 15 nmol/kg QD SC
Description: The animals were individually weighed and analyzed for lipid and cholesterol levels prior to treatment and following completion of the study. The levels of fasting glucose and insulin levels were analyzed, and oral glucose tolerance test was performed and compared between groups The levels of plasma triglycerides and cholesterol were evaluated at the end of study and compared to base levels prior to treatment. Levels of total cholesterol, triglycerides and glycogen were also examined at the end of study. Histology of liver was used to analyze for lipid droplets in the liver. All tests were conducted using routine methods known in the art.
The mice used in the studies were the gubra diet-induced obese (DIO) mouse model. […] The DIO mice were based on male C57BI/6J mice and ready for experiment after 18 weeks on a 60% high fat diet.
To ensure accurate monitoring of weight changes over the course of the study, the animals were weighed daily with precision, prior to dosing at 7:00 AM. Body weight data was recorded in two formats: (1) Absolute measurements: The direct weight of the animal each day, and (2) Relative measurements: The weight expressed as a percentage relative to the body weight recorded on Day 1.
Sixty C57BL/6JRj male mice were fed a high fat diet (60% HFD, D12492—Ssniff) for 20 weeks before treatment start. […] Body weight and food intake (24 h) were measured daily. […]

CC[C@H](C)[C@H](NC(=O)[C@H](CC(N)=O)NC(=O)[C@H](CC(N)=O)NC(=O)[C@H](CCCNC(=N)N)NC(=O)[C@H](CC(N)=O)NC(=O)[C@H](CCCNC(=N)N)NC(=O)CNC(=O)C(C)(C)NC(=O)[C@H](CC(N)=O)NC(=O)[C@H](CC(C)C)NC(=O)[C@H](CC(C)C)NC(=O)[C@H](Cc1c[nH]c2ccccc12)NC(=O)[C@H](CCC(N)=O)NC(=O)[C@@H](NC(=O)[C@H](Cc1ccccc1)NC(=O)[C@H](CCC(=O)O)NC(=O)[C@H](CCC(N)=O)NC(=O)[C@H](C)NC(=O)[C@H](CCCCN)NC(=O)[C@H](CCCCN)NC(=O)[C@H](CO)NC(=O)[C@H](CC(=O)O)NC(=O)[C@H](CC(C)C)NC(=O)[C@H](Cc1ccc(O)cc1)NC(=O)[C@H](CCCCN)NC(=O)[C@H](CO)NC(=O)[C@H](Cc1ccc(O)cc1)NC(=O)[C@H](CC(=O)O)NC(=O)[C@H](CO)NC(=O)[C@@H](NC(=O)[C@H](Cc1ccccc1)NC(=O)[C@@H](NC(=O)CNC(=O)[C@H](CCC(N)=O)NC(=O)C(C)(C)NC(=O)[C@@H](N)Cc1c[nH]cn1)[C@@H](C)O)[C@@H](C)O)C(C)C)C(=O)N[C@@H](C)C(=O)N[C@@H](CSCC(=O)NCCCC[C@H](NC(=O)COCCOCCNC(=O)COCCOCCNC(=O)CC[C@H](NC(=O)CCCCCCCCCCCCCCCCCCC(=O)O)C(=O)O)C(=O)NCC(=O)O)C(N)=O [Variant 1] (H-H[Aib]QGTFTSDYSKYLDSKKAQEFVQWLLN[Aib]GRNRNNIAC(X1)-NH2)
fasting blood glucose at week 4, P compared to Vehicle (FIG. 34B) [1]: < 0.05
glucose tolerance plasma insulin at week 4, P compared to Vehicle (FIG. 36B) [1]: < 0.05
relative liver triglyceride, P compared to Vehicle (FIG. 26A) ([2]; 15 nmol/kg QD SC): < 0.001
total liver triglyceride, P compared to Vehicle (FIG. 26B) ([2]; 15 nmol/kg QD SC): < 0.001
relative liver triglyceride, P compared to Vehicle (FIG. 26A) ([2]; Mid, 5 nmol/kg QD SC): < 0.001
total liver triglyceride, P compared to Vehicle (FIG. 26B) ([2]; Mid, 5 nmol/kg QD SC): < 0.01
absolute fat tissue mass at week 4, P compared to Vehicle (FIG. 21A) [3]: < 0.01
change in fat tissue mass from baseline, P compared to Vehicle (FIG. 23A) [3]: < 0.001
plasma cholesterol at termination, P compared to Vehicle (FIG. 32A) ([4]; 15 nmol/kg q.d.): < 0.001
plasma cholesterol at termination, P compared to Vehicle (FIG. 32A) ([4]; Mid, 5 nmol/kg q.d.): < 0.001
absolute body weight at day 28, P compared to Vehicle (FIG. 16A) [5]: < 0.001
relative body weight (day 28), P compared to Vehicle (FIG. 16B) [5]: < 0.001
